The results in this text go back to article PMC7006413.

Protein sequences, listed by entry. Tags and fused reporters are not part of them.
UniProt Q9NPI1: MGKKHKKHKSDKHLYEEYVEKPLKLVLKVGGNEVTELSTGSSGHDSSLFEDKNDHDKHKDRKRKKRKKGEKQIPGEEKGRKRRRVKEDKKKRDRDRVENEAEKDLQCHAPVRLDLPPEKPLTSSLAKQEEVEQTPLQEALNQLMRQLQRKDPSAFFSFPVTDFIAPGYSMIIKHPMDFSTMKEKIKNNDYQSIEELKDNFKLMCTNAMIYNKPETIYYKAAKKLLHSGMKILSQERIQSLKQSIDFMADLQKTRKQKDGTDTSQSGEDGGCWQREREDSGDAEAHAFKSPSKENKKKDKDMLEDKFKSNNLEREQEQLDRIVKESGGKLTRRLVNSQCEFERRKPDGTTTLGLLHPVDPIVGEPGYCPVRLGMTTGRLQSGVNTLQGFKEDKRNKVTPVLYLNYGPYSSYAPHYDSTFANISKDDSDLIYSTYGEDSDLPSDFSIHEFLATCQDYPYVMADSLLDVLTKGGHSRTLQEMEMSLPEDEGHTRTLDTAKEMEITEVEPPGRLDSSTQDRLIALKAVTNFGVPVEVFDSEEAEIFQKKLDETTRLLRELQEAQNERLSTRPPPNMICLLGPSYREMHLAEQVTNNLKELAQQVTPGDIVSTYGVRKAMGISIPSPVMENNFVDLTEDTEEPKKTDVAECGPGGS
UniProt P67809: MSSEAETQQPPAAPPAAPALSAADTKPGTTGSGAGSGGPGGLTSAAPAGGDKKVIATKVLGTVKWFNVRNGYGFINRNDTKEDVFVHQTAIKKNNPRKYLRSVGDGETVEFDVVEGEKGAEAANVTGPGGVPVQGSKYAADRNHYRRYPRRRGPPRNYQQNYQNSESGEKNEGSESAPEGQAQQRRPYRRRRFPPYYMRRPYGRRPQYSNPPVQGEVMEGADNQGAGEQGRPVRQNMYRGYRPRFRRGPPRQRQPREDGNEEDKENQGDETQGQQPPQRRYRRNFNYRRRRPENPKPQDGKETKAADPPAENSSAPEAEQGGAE

No constants are given. Whether binding was seen depends on the method and setting. Binding seen in cells or lysates may run through a third protein. A yes stands for co-enrichment or nearness to the bait. Other partners may have been found.

In the assay the target is flag-BRD7 (UniProt Q9NPI1). As to the kind of experiment: affinity purification with mass spectrometry; HEK293T transfected with pIRES2-EGFP-BRD7/3Flag for 48 h; extracts incubated overnight with Protein A/G beads carrying anti-flag or anti-IgG antibodies; 10% SDS-PAGE, Coomassie blue, in-gel trypsin digestion, nano-LC-MS/MS.

Consider “Y-box binding protein-1 (YB1), endogenous (from UniProt P67809 1-324)”, for which the binding result is given as “binds”.
